This assay addresses TGF-beta 1.2 (Homo sapiens (Human)). In words: BIAcore 2000 SPR, LP226 amine-coupled to CM5 chip, ligand injected. (Surface plasmon resonance follows binding to a sensor surface in real time, without labels.)

No constants are given. Whether binding was seen depends on the method and setting. Binding can be weak; no strength is given.

B1: LP226 (protein)
chain: RARPDMFCLFHGKRYSPGESWHPYLEPQGLMYCLRCTCSEGAHVSCYRLHCPPVHCPQPVTEPQQCCPKCVEPHTPSGLRAPPKSCQHNGTMYQHGEIFSAHELFPSRLPNQCVLCSCTEGQIYCGLTTCPEPGCPAPLPLPDSCCQACKDEASEQSDEEDSVQSLHGVRHPQDPCSSDAGRKRGPGTPAPTGLSAPLSFIPRHFRPKGAGSTTVKIVLKEKHKKACVHGGKTYSHGEVWHPAFRAFGPLPCILCTCEDGRQDCQRVTCPTEYPCRHPEKVAGKCCKICPEDKADPGHSEISSTRCPKAPGRVLVHTSVSPSPDNLRRFALEHEASDLVEIYLWKLVKGIFHLTQIKKVRKQDFQKEAQHFRLLAGPHEGHWNVFLAQTLELKVTASPDKVTKT
In the case of B1, the binding entry was “binds”.

Source of the values: US20030215913A1.
